Assay: Quantification of metabolites accumulating in HIPDOG fed-batch culture of GS-CHO cells (LC/MS, GC/MS, NMR)
Parameters: species or system Chinese hamster
Conditions: concentration of the metabolite accumulated on day 7 of the HIPDOG fed-batch culture, GS-CHO cell line A

SMILES | Day 7 Concentration [mM]
O=C(O)C(O)Cc1c[nH]c2ccccc12 (stereo not drawn) [Indolelactate] | 0.26
O=C(O)C(O)Cc1ccc(O)cc1 (stereo not drawn) [3-(4-hydroxyphenyl)lactate] | 0.38
O=CO [Formate] | 3.97
